Reference: patent US6653088
No constants are given. Whether binding was seen depends on the method and setting. For some of these results: In cells and extracts the contact can be indirect. Some entries that bind do so weakly or less than the wild type.

The chains behind the UniProt entries cited, without tags or fusion partners. Where a name states a change or a piece, a line headed by the entry shows the natural chain unless it says otherwise.
UniProt P05067: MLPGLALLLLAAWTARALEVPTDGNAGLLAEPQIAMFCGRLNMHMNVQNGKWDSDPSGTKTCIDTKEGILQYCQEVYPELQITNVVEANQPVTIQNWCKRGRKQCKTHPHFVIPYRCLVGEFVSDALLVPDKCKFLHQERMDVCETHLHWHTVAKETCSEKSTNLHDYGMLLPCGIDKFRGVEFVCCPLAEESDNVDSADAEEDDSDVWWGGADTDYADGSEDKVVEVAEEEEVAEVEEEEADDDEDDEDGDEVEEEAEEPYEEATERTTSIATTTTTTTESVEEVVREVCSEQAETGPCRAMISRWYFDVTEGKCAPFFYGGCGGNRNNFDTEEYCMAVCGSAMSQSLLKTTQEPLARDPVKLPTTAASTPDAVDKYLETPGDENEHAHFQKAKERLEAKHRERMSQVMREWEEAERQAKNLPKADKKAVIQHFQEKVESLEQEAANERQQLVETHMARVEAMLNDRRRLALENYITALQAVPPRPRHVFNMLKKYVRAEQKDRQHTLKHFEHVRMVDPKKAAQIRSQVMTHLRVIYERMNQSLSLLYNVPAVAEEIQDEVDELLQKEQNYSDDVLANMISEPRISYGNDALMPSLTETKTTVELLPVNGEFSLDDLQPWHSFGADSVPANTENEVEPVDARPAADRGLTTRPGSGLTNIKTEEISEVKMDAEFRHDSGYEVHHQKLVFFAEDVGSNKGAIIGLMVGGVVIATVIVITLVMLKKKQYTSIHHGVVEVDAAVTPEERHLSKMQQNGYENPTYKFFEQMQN

Tests used:
α-sAPP (human) [1] = target: α-sAPP (human) (UniProt P05067); assay: co-immunoprecipitation from cotransfected cells
β-sAPP (human) [2] = target: β-sAPP (human) (UniProt P05067); assay: co-immunoprecipitation from cotransfected cells
[3] = target: Aβ peptide produced by COS cells expressing SPA4CT (human); assay: immunoprecipitation of extracellular medium of cotransfected COS cells with anti-PS2 antibody, Aβ detected with W02; SDS-stable complex at approximately 40 kDa
α-sAPP (human) [4] = target: α-sAPP (human) (UniProt P05067); assay: co-immunoprecipitation (legend of FIG. 15)
β-sAPP (human) [5] = target: β-sAPP (human) (UniProt P05067); assay: co-immunoprecipitation (legend of FIG. 15)
[6] = target: Aβ peptide produced by COS cells expressing SPA4CT (human); assay: co-immunoprecipitation (legend of FIG. 7)
[7] = target: precursor of the β-amyloid peptide (APP), isoform 695 (human) (UniProt P05067); assay: co-immunoprecipitation from COS cell lysate, anti-PS2 N-term antibody 95041, anti-APP immunoblot
C100 (human) [8] = target: C100 (human) (UniProt P05067); assay: co-immunoprecipitation (legend of FIG. 4B)
SPA4CT (human) [9] = target: SPA4CT (human) (UniProt P05067); assay: co-immunoprecipitation (legend of FIG. 4A)
[10] = target: precursor of the β-amyloid peptide (APP), isoform 695 (human) (UniProt P05067); assay: co-immunoprecipitation from COS cell lysate, anti-PS2 N-term antibody, anti-APP immunoblot
SPA4CT (human) [11] = target: SPA4CT (human) (UniProt P05067); assay: co-immunoprecipitation from cotransfected COS cells, detection with αCT43
C100 (human) [12] = target: C100 (human) (UniProt P05067); assay: as above

Measured: binding

SecPS2Nt (N-terminal hydrophilic end of PS2 preceded by the Igk signal peptide, secreted form) (from UniProt P49810 1-87)
binds: α-sAPP (human) [1] | β-sAPP (human) [2] | [3] | α-sAPP (human) [4] | β-sAPP (human) [5] | [6]

presenilin 2 (PS2) (from UniProt P49810 1-448)
not listed: [3] | [6]
binds: all other assays above
